Record: PubChem BioAssay AID1224828 (NIAID, 2016)
Purpose: 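Find genes required for NF-kappaB p65 moving into the nucleus after LPS in mouse macrophages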 (primary screen). System: mouse RAW264.7 G9 macrophage reporter cells (GFP-p65, Tnf promoter-mCherry). Reagents: siRNA pool against mouse genes, 100 nM. Time to read-out: 2 days siRNA transfection, then 40 min LPS before fixation. Conditions: LPS (Salmonella minnesota R595) at 10 ng/ml. Detection: 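Microscopy ratio of nuclear to perinuclear-ring GFP-p65 signal, scaled to the plate median; gene score is the average of two replicate robust z-scores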. Direction: p65 translocation robust z-score: higher = more nuclear NF-kappaB p65 after LPS than the plate median; nuclear/cytoplasmic p65 ratio: higher = more nuclear NF-kappaB p65. Call rule: 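Active if robust z is above 3.3 (negative regulators) or below -1.56, the Tlr4 control median (positive regulators); activity score 50 or more; control wells not called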. Meaning of the calls: active = hit (p65 shift raised or lowered); inactive = no clear change.
Shown is an unselected part of about 17,000 reagents tested. Over the whole deposit, 762 (4.5%) are marked active. 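Active calls include both raised and lowered p65 entry, mostly lowered; wells with fewer than 50 cells lack a z-score.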 Raw values are not corrected between plates.

| gene symbol | PubChem SID | p65 translocation robust z-score | nuclear/cytoplasmic p65 ratio, rep 1 | nuclear/cytoplasmic p65 ratio, rep 2 | low cell count flag | activity call |
| --- | --- | --- | --- | --- | --- | --- |
| Gm10413 (predicted gene 10413) | SID315475123 | 0.65 | 1.45 | 1.53 | enough cells to score | inactive |
| Atl2 (atlastin GTPase 2) | SID315471441 | -0.72 | 1.41 | 1.49 | enough cells to score | inactive |
| Vmn1r198 (vomeronasal 1 receptor 198) | SID315477329 | – | 1.41 | 1.09 | fewer than 50 cells per well; well left out of scoring | inactive |
| Cdkn1a (cyclin dependent kinase inhibitor 1A) | SID315465913 | -1.73 | 1.36 | 1.2 | enough cells to score | active |
| Or5k1b (olfactory receptor family 5 subfamily K member 1B) | SID315480611 | 1.07 | 1.79 | 1.55 | enough cells to score | inactive |
| Or9i2 (olfactory receptor family 9 subfamily I member 2) | SID315480283 | – | 1.72 | 1.14 | fewer than 50 cells per well; well left out of scoring | inactive |
| Oxld1 (oxidoreductase like domain containing 1) | SID315472438 | – | 1.29 | 1.39 | fewer than 50 cells per well; well left out of scoring | inactive |
| Sntb2 (syntrophin, basic 2) | SID315469371 | -0.9 | 1.3 | 1.12 | enough cells to score | inactive |
| Cd209d (CD209d antigen) | SID315477238 | -0.43 | 1.59 | 1.65 | enough cells to score | inactive |
| Lamp3 (lysosomal-associated membrane protein 3) | SID315479459 | -0.21 | 1.49 | 1.44 | enough cells to score | inactive |
| Atrn (attractin) | SID315465577 | -0.76 | 1.42 | 1.47 | enough cells to score | inactive |
| Vmn1r8 (vomeronasal 1 receptor 8) | SID315477293 | 1.82 | 1.67 | 1.4 | enough cells to score | inactive |
| Rassf4 (Ras association (RalGDS/AF-6) domain family member 4) | SID315477797 | -0.28 | 1.39 | 1.14 | enough cells to score | inactive |
| Bcl2l10 (Bcl2-like 10) | SID315465616 | -0.81 | 1.46 | 1.53 | enough cells to score | inactive |
| Spata31f3 (spermatogenesis associated 31 subfamily F member 3) | SID315480998 | 0.24 | 1.49 | 1.53 | enough cells to score | inactive |
| Atp13a2 (ATPase type 13A2) | SID315475046 | 0.17 | 1.63 | 1.64 | enough cells to score | inactive |
| Mrgpra2b (MAS-related GPR, member A2B) | SID315479288 | 2.24 | 2.06 | 2.01 | enough cells to score | inactive |
| Rbms1 (RNA binding motif, single stranded interacting protein 1) | SID315471714 | 1.91 | 1.79 | 1.78 | enough cells to score | inactive |
| Mlst8 (MTOR associated protein, LST8 homolog (S. cerevisiae)) | SID315471651 | -0.65 | 1.37 | 1.49 | enough cells to score | inactive |
| Rph3a (rabphilin 3A) | SID315469006 | 0.89 | 1.56 | 1.3 | enough cells to score | inactive |
| Lrit2 | SID315479416 | -0.11 | 1.42 | 1.45 | enough cells to score | inactive |
| Pex12 (peroxisomal biogenesis factor 12) | SID315476388 | -0.89 | 1.27 | 1.35 | enough cells to score | inactive |
| Mrps7 (mitchondrial ribosomal protein S7) | SID315470810 | 0.5 | 1.88 | 1.66 | enough cells to score | inactive |
| Pcdhb13 (protocadherin beta 13) | SID315475996 | -0.14 | 1.37 | 1.45 | enough cells to score | inactive |
| Ubac1 (ubiquitin associated domain containing 1) | SID315476148 | – | 1.36 | 1.25 | fewer than 50 cells per well; well left out of scoring | inactive |
| Mettl4 (methyltransferase 4, N6-adenosine) | SID315475375 | -0.57 | 1.31 | 1.44 | enough cells to score | inactive |
| Lamtor1 (late endosomal/lysosomal adaptor, MAPK and MTOR activator 1) | SID315472483 | – | 1.2 | 1.19 | fewer than 50 cells per well; well left out of scoring | inactive |
| Trit1 (tRNA isopentenyltransferase 1) | SID315472743 | 2.39 | 1.75 | 1.45 | enough cells to score | inactive |
| Rpl41 (ribosomal protein L41) | SID315473327 | – | 1.22 | 1.08 | fewer than 50 cells per well; well left out of scoring | inactive |
| Upk1b (uroplakin 1B) | SID315469946 | – | 1.51 | 1.44 | fewer than 50 cells per well; well left out of scoring | inactive |
| Phf12 (PHD finger protein 12) | SID315480768 | -1.45 | 1.18 | 1.13 | enough cells to score | inactive |
| Slc22a17 | SID315471980 | 0.39 | 1.43 | 1.32 | enough cells to score | inactive |
| Npdc1 (neural proliferation, differentiation and control 1) | SID315468222 | 1.47 | 1.96 | 1.72 | enough cells to score | inactive |
| Clk1 (CDC-like kinase 1) | SID315465998 | 1.54 | 1.75 | 2.12 | enough cells to score | inactive |
| Tssk5 (testis-specific serine kinase 5) | SID315474748 | – | 1.46 | 1.38 | fewer than 50 cells per well; well left out of scoring | inactive |
| Gnb1 (guanine nucleotide binding protein (G protein), beta 1) | SID315466952 | 1 | 1.63 | 1.75 | enough cells to score | inactive |
| Klk1 (kallikrein 1) | SID315467647 | -2.17 | 1.23 | 1.15 | enough cells to score | active |
| Mpzl3 (myelin protein zero-like 3) | SID315481160 | -1.85 | 1.14 | 1.26 | enough cells to score | active |
| Chd3 (chromodomain helicase DNA binding protein 3) | SID315478040 | -0.61 | 1.5 | 1.69 | enough cells to score | inactive |
| Cxcl5 (C-X-C motif chemokine ligand 5) | SID315469148 | 0.96 | 1.61 | 1.5 | enough cells to score | inactive |
| Emp2 (epithelial membrane protein 2) | SID315466494 | 0.71 | 1.77 | 1.49 | enough cells to score | inactive |
| Ces1f (carboxylesterase 1F) | SID315479170 | 0.57 | 1.57 | 1.71 | enough cells to score | inactive |
| Mto1 (mitochondrial tRNA translation optimization 1) | SID315473494 | -1.58 | 1.55 | 1.34 | enough cells to score | active |
| Nmur2 (neuromedin U receptor 2) | SID315478023 | -0.41 | 1.51 | 1.47 | enough cells to score | inactive |
| Ints7 (integrator complex subunit 7) | SID315475444 | -0.4 | 1.49 | 1.61 | enough cells to score | inactive |
| Plekha4 (pleckstrin homology domain containing A4) | SID315473756 | – | 1.42 | 1.3 | fewer than 50 cells per well; well left out of scoring | inactive |
| Pex6 (peroxisomal biogenesis factor 6) | SID315478377 | 0.38 | 1.53 | 1.43 | enough cells to score | inactive |
| Ppp1cc (protein phosphatase 1 catalytic subunit gamma) | SID315468662 | 0.27 | 1.47 | 1.5 | enough cells to score | inactive |
| Or8b53 (olfactory receptor family 8 subfamily B member 53) | SID315480430 | 0.22 | 1.52 | 1.23 | enough cells to score | inactive |
| Depdc5 (DEP domain containing 5) | SID315481000 | 0.83 | 1.66 | 1.7 | enough cells to score | inactive |
| Rhox3a (reproductive homeobox 3A) | SID315481826 | – | 1.14 | 1.58 | fewer than 50 cells per well; well left out of scoring | inactive |
| Cysltr2 (cysteinyl leukotriene receptor 2) | SID315473972 | -0.41 | 1.5 | 1.47 | enough cells to score | inactive |
| Rrad (Ras-related associated with diabetes) | SID315471534 | -0.53 | 1.41 | 1.47 | enough cells to score | inactive |
| Med16 (mediator complex subunit 16) | SID315477979 | 0.75 | 1.46 | 1.23 | enough cells to score | inactive |
| Erbb2 (erb-b2 receptor tyrosine kinase 2) | SID315466547 | -0.29 | 1.56 | 1.41 | enough cells to score | inactive |
| Hoxc8 (homeobox C8) | SID315467272 | -1.99 | 1.36 | 1.24 | enough cells to score | active |
| Nfkbil1 | SID315468161 | -0.12 | 1.46 | 1.37 | enough cells to score | inactive |
| Nat14 (N-acetyltransferase 14) | SID315480891 | – | 1.06 | 1.41 | fewer than 50 cells per well; well left out of scoring | inactive |
| Snap25 (synaptosomal-associated protein 25) | SID315469352 | – | 1.6 | 1.18 | fewer than 50 cells per well; well left out of scoring | inactive |

Already shown: entries from further up.
| gene symbol | PubChem SID | p65 translocation robust z-score | nuclear/cytoplasmic p65 ratio, rep 1 | nuclear/cytoplasmic p65 ratio, rep 2 | low cell count flag | activity call |
| --- | --- | --- | --- | --- | --- | --- |
| Mrps7 (mitchondrial ribosomal protein S7) | SID315470810 | 0.5 | 1.88 | 1.66 | enough cells to score | inactive |
| Pcdhb13 (protocadherin beta 13) | SID315475996 | -0.14 | 1.37 | 1.45 | enough cells to score | inactive |
| Ubac1 (ubiquitin associated domain containing 1) | SID315476148 | – | 1.36 | 1.25 | fewer than 50 cells per well; well left out of scoring | inactive |
| Mettl4 (methyltransferase 4, N6-adenosine) | SID315475375 | -0.57 | 1.31 | 1.44 | enough cells to score | inactive |
